Measurements: patent US11883458B2, “Herb medicine composition for alleviating or treating asthma, and oriental pharmacopuncture solution containing same and injection containing same” (priority 2019, dated 2024)
At least one structure is not confirmed: it was looked up by name or label, or the drawing left a doubt.

Test system: asthma-induced BALB/c mice (ovalbumin)
Assay: Ovalbumin-induced asthma in BALB/c mice: white blood cell, eosinophil and IgE measurement
Format: in vivo
Settings: after 4 weeks, summary of Table 3
Description: Ovalbumin was administered to BALB/c mice to induce asthma. The total white blood cell (WBC) count, eosinophil count, and […] in bronchoalveolar lavage fluid (BALF) were measured.
As experimental animals, BALB/c mice (supplier: Samtako Korea), which have been widely used in asthma tests, were used. Female BALB/c mice were used and were 6 weeks old at the time of acquisition and 7 weeks old at the time of the experiment. After acquisition, the mice were acclimatized in an animal test room for 6 days, and observed at least once a day. During the acclimatization period, the mice were distinguished by skin mark using a red oil magic pen. During the administration and observation period, the mice were distinguished by skin mark using a black oil magic pen. An individual identification card was attached to a breeding cage. […] During the acclimatization period, mice determined to be healthy were weighed and ranked according to weight. […]
After 4 weeks, the measurement of the white blood cell (WBC) count, eosinophil count, and IgE was performed using mouse blood. The mean values thereof were calculated, and the results are illustrated in Table 3 below.

C[C@@H]1C[C@H]2[C@@H]3CCC4=CC(=O)C=C[C@]4(C)[C@@]3(F)[C@@H](O)C[C@]2(C)[C@@]1(O)C(=O)CO [Positive control, dexamethasone]
WBC count, eosinophil count, and IgE compared to the controls (in words): significantly low compared to the negative control
